The values that follow come from the supplement of paper PMC8256030.

The structures appear in SMILES notation. Where “and” joins values, the source holds several entries; their conditions need not be identical. Equal entries are not always repeated. Some of the results follow. This data set is noisy: repeats of one test often differ as much as different tests do.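 HEK293T cells were given each compound shortly before transfection with a reporter in which red mCherry is followed by the SARS-CoV-2 frameshift element and then GFP in the −1 frame, so GFP appears only after frameshifting.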

For this assay, the system named is HEK293T. As to the kind of experiment: percent viability (nuclei count) relative to control; higher = more viable cells. Particulars: 10 µM; 24 h.
Regarding `CCCCCN(C)CCC(O)(P(=O)(O)O)P(=O)(O)O` [ibandronic acid], the percent viability is 172%.

For the molecule `CC/C(=C(\c1ccccc1)c1ccc(OCCN(C)C)cc1)c1ccccc1` [tamoxifen], the percent viability is 189% and 256% and 251%.

Consider `C[C@@H](O)[C@H]1C(=O)N2C(C(=O)O)=C(SCCN=CN)C[C@H]12`, for which the percent viability came out at 163%.
